In paper PMC9019556, “Molecular interactions of STAC proteins with skeletal muscle dihydropyridine receptor and excitation‐contraction coupling” (Protein Science : A Publication of the Protein Society, 2022):
No constants are given. Whether binding was seen depends on the method and setting. Some results given as binding are weak or reduced against the parent protein; the word gives no strength.

The chains behind the UniProt entries cited, without tags or fusion partners. Residues count along the entry.
UniProt P07293, residues 740-764: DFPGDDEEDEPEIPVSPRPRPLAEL

Columns and labels:
[1] = biological target: T1, tandem SH3 domains of STAC2 (human) (UniProt Q6ZMT1); test: NMR titration; 1H-15N HSQC of ~0.2 mM 15N-labelled STAC construct titrated with C3 peptide (0.5:1, 1:1, 2:1, 4:1); 27 mM NaH2PO4, 30 mM Na2HPO4, 150 mM NaCl, 100 mM glutamic acid, 100 mM arginine, 3 mM EDTA, pH 6.8; 20°C; CSP cutoff 0.1 ppm; both purified
T1 sequence: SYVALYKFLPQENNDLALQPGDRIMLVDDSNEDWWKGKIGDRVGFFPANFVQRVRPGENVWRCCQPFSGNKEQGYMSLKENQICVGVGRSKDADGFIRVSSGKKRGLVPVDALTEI

[2] = biological target: T2, tandem SH3 domains of STAC3 (SH3 and cysteine-rich domain-containing protein 3) (human) (UniProt Q96MF2); test: as above
T2 sequence: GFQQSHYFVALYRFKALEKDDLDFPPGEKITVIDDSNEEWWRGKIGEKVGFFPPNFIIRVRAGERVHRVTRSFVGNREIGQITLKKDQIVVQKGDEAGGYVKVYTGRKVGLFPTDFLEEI

[3] = biological target: T3, individual second SH3 domain (SH3_2) of STAC3 (human) (UniProt Q96MF2); test: condition: up to 4:1 ratio of titrant to ~0.2 mM 15N-labelled protein; NMR titration; 1H-15N HSQC of ~0.2 mM 15N-labelled STAC construct titrated with C3 peptide (0.5:1, 1:1, 2:1, 4:1); 27 mM NaH2PO4, 30 mM Na2HPO4, 150 mM NaCl, 100 mM glutamic acid, 100 mM arginine, 3 mM EDTA, pH 6.8; 20°C; CSP cutoff 0.1 ppm; both purified
T3 sequence: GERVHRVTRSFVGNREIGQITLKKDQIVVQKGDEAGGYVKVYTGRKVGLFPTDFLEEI

binding [1]: binds
binding [2]: binds
binding [3]: no binding
Substance: II–III loop C3 peptide (residues 740–764 of the DHPR α1S subunit) (from UniProt P07293 740-764)
